The target in the test is AChE (from Electrophorus electricus) (Electrophorus electricus, UniProt O42275). Briefly: AChE inhibitory activity (Ellman method). The settings on record: read-out: IC50 AChE. For orientation: In Ellman's method for cholinesterases, released thiocholine reacts with DTNB.

Protein sequences, listed by entry. Tags and fused reporters are not part of them. Residues count along the entry.
UniProt O42275, 24-633 limits assumed: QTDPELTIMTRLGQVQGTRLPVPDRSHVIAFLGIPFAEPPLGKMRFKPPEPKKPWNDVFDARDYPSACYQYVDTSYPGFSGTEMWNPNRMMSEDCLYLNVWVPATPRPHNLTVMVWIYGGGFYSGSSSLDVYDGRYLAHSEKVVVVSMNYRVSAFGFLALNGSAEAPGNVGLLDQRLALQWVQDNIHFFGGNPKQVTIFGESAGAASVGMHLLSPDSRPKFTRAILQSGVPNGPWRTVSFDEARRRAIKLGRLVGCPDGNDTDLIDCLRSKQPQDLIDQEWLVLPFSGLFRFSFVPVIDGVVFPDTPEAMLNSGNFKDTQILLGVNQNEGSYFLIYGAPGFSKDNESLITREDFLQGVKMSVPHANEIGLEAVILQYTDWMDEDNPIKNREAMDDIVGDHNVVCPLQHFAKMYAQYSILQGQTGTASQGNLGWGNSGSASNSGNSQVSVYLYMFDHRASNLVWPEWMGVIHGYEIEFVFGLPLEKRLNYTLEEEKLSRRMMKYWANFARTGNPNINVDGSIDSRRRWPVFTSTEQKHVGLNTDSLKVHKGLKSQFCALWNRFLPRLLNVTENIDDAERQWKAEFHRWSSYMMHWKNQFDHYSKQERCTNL

SMILES strings stand for the structures. Not every entry of the source has a single result; some have several. Only these are listed. An entry can have further records. Values given together differ, and nothing given here explains why; dose, time, organism, isomer or construct need not be as stated for each record.

As for `COc1ccc(C2=NOC(CN3CCC(N4CCCC4=O)c4cc(Cl)ccc43)C2)cc1` (stereo not shown) [5n, 5-[(6-chloro-4-(2′-oxopyrrolidin-1′-yl)-3,4-dihydroquinolin-1(2H)-yl)-methyl]-3-(4-methoxyphenyl)-4,5-dihydroisoxazole], the IC50 is < 15.3 µM and 4.24 µM.

The IC50 is the concentration that inhibits the measured activity by half.

Values taken from paper PMC6981637, “Tetrahydroquinoline-Isoxazole/Isoxazoline Hybrid Compounds as Potential Cholinesterases Inhibitors: Synthesis, Enzyme Inhibition Assays, and Molecular Modeling Studies” (International Journal of Molecular Sciences, 2019).
